Assay results published in the supplement of paper PMC4604168 (melanoma cell lines).
The other results are listed elsewhere or left out. Repeats are few or missing, and single values can be far off.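 Imaging used 1,536-well plates; nuclei positive for cleaved PARP by antibody were divided by total DNA-stained nuclei to yield the apoptosis fraction. Doses for screening kept most cells viable, and cell lines differ markedly in resting and induced cleaved-PARP levels.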

Experiments:
Test in all cases: cleaved PARP positive nuclei fraction relative to DMSO control; melanoma cells; higher = more apoptosis
Conditions in all cases: library dose: low library concentration; 72 h
WM115 = system: WM115
WM1716 = system: WM1716
WM1745 = system: WM1745
WM3526 = system: WM3526
WM3619 = system: WM3619
WM451Lu = system: WM451Lu

Row | Structure (SMILES) | cleaved PARP positive nuclei fraction (WM115) [%] | cleaved PARP positive nuclei fraction (WM1716) [%] | cleaved PARP positive nuclei fraction (WM1745) [%] | cleaved PARP positive nuclei fraction (WM3526) [%] | cleaved PARP positive nuclei fraction (WM3619) [%] | cleaved PARP positive nuclei fraction (WM451Lu) [%]
1 | CC(=O)c1c(C)c2cnc(Nc3ccc(N4CCNCC4)cn3)nc2n(C2CCCC2)c1=O [palbociclib] + C=CCn1c(=O)c2cnc(Nc3ccc(N4CCN(C)CC4)cc3)nc2n1-c1cccc(C(C)(C)O)n1 [MK1775] (first compound 0.04 µM, partner dose 0.02 µM) | 263 | 87.9 | 116 | 417 | 149 | 151
2 | Cn1cncc1[C@@](N)(c1ccc(Cl)cc1)c1ccc2c(c1)c(-c1cccc(Cl)c1)cc(=O)n2C [tipifarnib] + Cc1cc([N+](=O)[O-])ccc1NS(=O)(=O)c1cc(Cl)ccc1Cl [FH535] (first compound 0.01 µM, partner dose 1 µM) | 262 | 84.4 | 113 | 83.4 | 137 | 141
3 | C=CCn1c(=O)c2cnc(Nc3ccc(N4CCN(C)CC4)cc3)nc2n1-c1cccc(C(C)(C)O)n1 + Oc1nc(-c2ccc(C(F)(F)F)cc2)nc2c1CSCC2 [XAV939] (first compound 0.02 µM, partner dose 2 µM) | 92.6 | 126 | 151 | 123 | 101 | 55.1
4 | Nc1cccc2c1CN(C1CCC(=O)NC1=O)C2=O (configuration not stated) [lenalidomide] + CO[C@@H]1[C@H](N(C)C(=O)c2ccccc2)C[C@H]2O[C@]1(C)n1c3ccccc3c3c4c(c5c6ccccc6n2c5c31)C(=O)NC4 [Midostaurin] (first compound 1 µM, partner dose 0.08 µM) | 34.7 | 80.5 | 88.2 | 60 | 121 | 31.5
5 | Cc1nc(Nc2ncc(C(=O)Nc3c(C)cccc3Cl)s2)cc(N2CCN(CCO)CC2)n1 [dasatanib] + O=C(O)c1ccc(-c2c[nH]c3ncc(-c4ccccc4)cc23)cc1C1CCCC1 [GSK650394] (first compound 0.004 µM, partner dose 0.16 µM) | 89.2 | 208 | 145 | 58.1 | 107 | 29.5
6 | Clc1ccc(Nc2nnc(Cc3ccncc3)c3ccccc23)cc1 [vatalanib] + Cn1cncc1[C@@](N)(c1ccc(Cl)cc1)c1ccc2c(c1)c(-c1cccc(Cl)c1)cc(=O)n2C [tipifarnib] (first compound 2 µM, partner dose 0.01 µM) | 136 | 54 | 107 | 73.1 | 106 | 118
7 | COc1cc(Nc2ncc(F)c(Nc3ccc4c(n3)NC(=O)C(C)(C)O4)n2)cc(OC)c1OC [Tamatinib] + Cc1cc(N2CCOCC2)cc2[nH]c(-c3c(NC[C@@H](O)c4cccc(Cl)c4)cc[nH]c3=O)nc12 [BMS536924] (first compound 0.4 µM, partner dose 0.2 µM) | 291 | 86.5 | 248 | 145 | 125 | 165
8 | COCC[n+]1c2c(n(Cc3cnccn3)c1C)C(=O)c1ccccc1C2=O + Nc1cccc2c1CN(C1CCC(=O)NC1=O)C2=O [lenalidomide] (first compound 0.0004 µM, partner dose 1 µM) | 240 | 80 | 104 | 56.6 | 86.9 | 402
9 | Nc1cccc2c1CN(C1CCC(=O)NC1=O)C2=O (configuration not stated) [lenalidomide] + O=c1cc(-c2cccc3c2Sc2ccccc2S3)oc(N2CCOCC2)c1 [KU55933] (first compound 1 µM, partner dose 1 µM) | 150 | 74.5 | 80.4 | 72 | 63.5 | 228
10 | C=CCNC1=C2C[C@@H](C)C[C@H](OC)[C@H](O)[C@@H](C)/C=C(\C)[C@H](OC(N)=O)[C@@H](OC)/C=C\C=C(/C)C(=O)NC(=CC1=O)C2=O [Tanespimycin] + COc1cc2ncnc(Nc3ccc(Oc4ccccc4)cc3)c2cc1OC [SrcI1] (first compound 0.002 µM, partner dose 2 µM) | 114 | 20.9 | 102 | 82.3 | 97.6 | 49.3
11 | Cn1c(Nc2ccc(C(F)(F)F)cc2)nc2cc(Oc3ccnc(-c4ncc(C(F)(F)F)[nH]4)c3)ccc21 + O=C(O)C(=O)Nc1sc2c(c1C(=O)O)CCNC2 [TCS401] (first compound 0.08 µM, partner dose 1.66667 µM) | 890 | 199 | 132 | 151 | 107 | 70.7
12 | C[C@]1(c2nc3c(C(N)=O)cccc3[nH]2)CCCN1 [Veliparib] + O=c1cc(-c2cccc3c2Sc2ccccc2S3)oc(N2CCOCC2)c1 [KU55933] (first compound 1.4 µM, partner dose 1 µM) | 84.6 | 135 | 103 | 85.9 | 82.2 | 81.1
13 | OCc1c[nH]c2ccccc12 [Indole-3-carbinol] + COCC[n+]1c2c(n(Cc3cnccn3)c1C)C(=O)c1ccccc1C2=O [YM155] (first compound 0.8 µM, partner dose 0.0004 µM) | 123 | 114 | 94.7 | 47.7 | 92.2 | 80.4
14 | O=C(CCCCCCC(=O)Nc1ccccc1)NO [vorinostat] + O=C(Nc1ccccc1)c1cc([N+](=O)[O-])ccc1Cl [GW9662] (first compound 0.08 µM, partner dose 2 µM) | 95.7 | 57.2 | 96.3 | 134 | 95.4 | 64.3
15 | Cn1nnc2c(C(N)=O)ncn2c1=O [temozolomide] + CC1(C)NC(=O)N(c2ccc([N+](=O)[O-])c(C(F)(F)F)c2)C1=O [nilutamide] (first compound 2 µM, partner dose 1 µM) | 65.7 | 177 | 186 | 120 | 130 | 109
16 | CC(=O)c1c(C)c2cnc(Nc3ccc(N4CCNCC4)cn3)nc2n(C2CCCC2)c1=O [palbociclib] + Oc1cc(-c2nc(-c3ccccc3)[nH]c2-c2ccncc2)ccc1Cl [L779450] (first compound 0.04 µM, partner dose 0.2 µM) | 110 | 72.6 | 770 | 274 | 124 | 114
17 | COc1cc(Nc2ncc(F)c(Nc3ccc4c(n3)NC(=O)C(C)(C)O4)n2)cc(OC)c1OC [Tamatinib] + C[C@@H]1CCN(C(=O)CC#N)C[C@@H]1N(C)c1ncnc2[nH]ccc12 [CP690550] (first compound 0.4 µM, partner dose 1 µM) | 190 | 119 | 125 | 66.4 | 187 | 50.9
18 | Cn1nnc2c(C(N)=O)ncn2c1=O [temozolomide] + CCN(CC)CCCCNc1ncc2cc(-c3cc(OC)cc(OC)c3)c(NC(=O)NC(C)(C)C)nc2n1 [PD173074] (first compound 2 µM, partner dose 0.1 µM) | 141 | 185 | 102 | 64.5 | 80.3 | 340
19 | O=C(Nc1cccc(Cl)c1)Nc1ncc(CCNc2ncnc3ccsc23)s1 + CCc1ccc(CCOc2ccc(CC3SC(=O)NC3=O)cc2)nc1 [pioglitazone] (first compound 0.0008 µM, partner dose 2 µM) | 220 | 67.6 | 108 | 267 | 75.6 | 361
20 | COCC[n+]1c2c(n(Cc3cnccn3)c1C)C(=O)c1ccccc1C2=O + O=C(O)C(=O)Nc1sc2c(c1C(=O)O)CCNC2 [TCS401] (first compound 0.0004 µM, partner dose 1.66667 µM) | 212 | 88.9 | 110 | 203 | 77.5 | 73.7
21 | CO[C@@H]1[C@H](N(C)C(=O)c2ccccc2)C[C@H]2O[C@]1(C)n1c3ccccc3c3c4c(c5c6ccccc6n2c5c31)C(=O)NC4 [Midostaurin] + CCc1ccc(CCOc2ccc(CC3SC(=O)NC3=O)cc2)nc1 [pioglitazone] (first compound 0.08 µM, partner dose 2 µM) | 116 | 120 | 137 | 136 | 79.8 | 46.1
22 | Cn1nnc2c(C(N)=O)ncn2c1=O [temozolomide] + CCc1ccc(CCOc2ccc(CC3SC(=O)NC3=O)cc2)nc1 [pioglitazone] (first compound 2 µM, partner dose 2 µM) | 109 | 80.8 | 108 | 64.8 | 88.7 | 76.1

Whole records from above:
CC(=O)c1c(C)c2cnc(Nc3ccc(N4CCNCC4)cn3)nc2n(C2CCCC2)c1=O [palbociclib] + C=CCn1c(=O)c2cnc(Nc3ccc(N4CCN(C)CC4)cc3)nc2n1-c1cccc(C(C)(C)O)n1 [MK1775] (first compound 0.04 µM, partner dose 0.02 µM) is listed as cleaved PARP positive nuclei fraction (WM115) [%]: 263; cleaved PARP positive nuclei fraction (WM1716) [%]: 87.9; cleaved PARP positive nuclei fraction (WM1745) [%]: 116; cleaved PARP positive nuclei fraction (WM3526) [%]: 417; cleaved PARP positive nuclei fraction (WM3619) [%]: 149; cleaved PARP positive nuclei fraction (WM451Lu) [%]: 151
Cn1nnc2c(C(N)=O)ncn2c1=O [temozolomide] + CC1(C)NC(=O)N(c2ccc([N+](=O)[O-])c(C(F)(F)F)c2)C1=O [nilutamide] (first compound 2 µM, partner dose 1 µM) is listed as cleaved PARP positive nuclei fraction (WM115) [%]: 65.7; cleaved PARP positive nuclei fraction (WM1716) [%]: 177; cleaved PARP positive nuclei fraction (WM1745) [%]: 186; cleaved PARP positive nuclei fraction (WM3526) [%]: 120; cleaved PARP positive nuclei fraction (WM3619) [%]: 130; cleaved PARP positive nuclei fraction (WM451Lu) [%]: 109
